Data published in patent US7569586B2, “Compounds having β2 adrenergic receptor agonist and muscarinic receptor antagonist activity” (Theravance, Inc., priority 2004, dated 2009).
Some entries share one result that the patent states for a list of compounds.

Key:
[1] = target: T1, human β2 adrenergic receptor (Homo sapiens, UniProt P07550); assay: Whole-cell cAMP Flashplate assay in CHO cell lines heterologously expressing human β2 adrenergic receptor (Assay Test Procedure C); type: cell-based; design: expressed in transfected cells; host or cells: CHO-K1 cells; settings: receptor subtype selectivity, functional
Method: cAMP assays were performed in a radioimmunoassay format using the Flashplate Adenylyl Cyclase Activation Assay System with [^125I]-cAMP (NEN SMP004, PerkinElmer Life Sciences Inc., Boston, Mass.), according to the manufacturers instructions. For the determination of P receptor agonist potency (EC50), CHO-K1 cell lines stably expressing cloned human β1, β2 or β3 adrenergic receptors were grown to near confluency in HAM's F-12 media supplemented with 10% FBS and Geneticin (250 μg/mL). Cells were rinsed with PBS and detached in dPBS (Dulbecco's Phosphate Buffered Saline, without CaCl2 and MgCl2) containing 2 mM EDTA or Trypsin-EDTA solution (0.05% trypsin/0.53 mM EDTA). After counting cells in Coulter cell counter, cells were pelleted by centrifugation at 1,000 rpm and re-suspended in stimulation buffer containing IBMX (PerkinElmer Kit) pre-warmed to room temperature to a concentration of 1.6×10^6 to 2.8×10^6 cells/mL. About 60,000 to 80,000 cells per well were used in this assay. Test compounds (10 mM in DMSO) were diluted into PBS containing 0.1% BSA in Beckman Biomek-2000 and tested at 11 different concentrations ranging from 100 μM to 1 pM. Reactions were incubated for 10 min at 37° C. and stopped by adding 100 μL of cold detection buffer containing [^125I]-cAMP (NEN SMP004, PerkinElmer Life Sciences, Boston, Mass.). The amount of cAMP produced (pmol/well) was calculated based on the counts observed for the samples and cAMP standards as described in the manufacturer's user manual. Data were analyzed by nonlinear regression analysis with the GraphPad Prism Software package (GraphPad Software, Inc., San Diego, Calif.) with the sigmoidal equation. The Cheng-Prusoff equation (Cheng Y, and Prusoff W H., Biochemical Pharmacology, 1973, 22, 23, 3099-108) was used to calculate the […].

[2] = target: T1, human β2 adrenergic receptor; assay: Radioligand binding assay for human β2 adrenergic receptor (Assay Test Procedure A); design: expressed in transfected cells; host or cells: CHO-K1 cells; settings: receptor subtype selectivity
Method: Chinese hamster ovarian (CHO) cell lines stably expressing cloned human β1, β2 or β3 adrenergic receptors, respectively, were grown to near confluency in Hams F-12 media with 10% FBS in the presence of 500 μg/mL Geneticin. The cell monolayer was lifted with 2 mM EDTA in PBS. Cells were pelleted by centrifugation at 1,000 rpm, and cell pellets were either stored frozen at −80° C. or membranes were prepared immediately for use. For preparation of β1 and β2 receptor expressing membranes, cell pellets were re-suspended in lysis buffer (10 mM HEPES/HCl, 10 mM EDTA, pH 7.4 at 4° C.) and homogenized using a tight-fitting Dounce glass homogenizer (30 strokes) on ice. […] The protein concentration of the membrane suspension was determined by the methods described in Lowry et al., 1951, Journal of Biological Chemistry, 193, 265; and Bradford, Analytical Biochemistry, 1976, 72, 248-54. […]
Binding assays were performed in 96-well microtiter plates in a total assay volume of 100 μL with 10-15 μg of membrane protein containing the human β1, β2 or β3 adrenergic receptors in assay buffer (75 mM Tris/HCl pH 7.4 at 25° C., 12.5 mM MgCl2, 1 mM EDTA, 0.2% BSA). […] Non-specific binding was determined in the presence of 10 μM propranolol. […] Filter plates were washed three times with filtration buffer (75 mM Tris/HCl pH 7.4 at 4° C., 12.5 mM MgCl2, 1 mM EDTA) to remove unbound radioactivity. […]

Compound | ratio of EC50(β1)/EC50(β2) [1] | ratio of Ki(β1)/Ki(β2) [2]
O=C(Nc1ccccc1-c1cccs1)OC1CCN(CCCCCCCCCNC[C@H](O)c2ccc(O)c3[nH]c(=O)ccc23)CC1 [Example 1, (2-Thien-2-ylphenyl)carbamic Acid 1-{9-[(R)-2-Hydroxy-2-(8-hydroxy-2-oxo-1,2-dihydroquinolin-5-yl)ethylamino]nonyl}piperidin-4-yl Ester] | greater than 10 | greater than or equal to 5
O=C(Nc1ccccc1-c1ccsc1)OC1CCN(CCCCCCCCCNC[C@H](O)c2ccc(O)c3[nH]c(=O)ccc23)CC1 [Example 2, (2-Thien-3-ylphenyl)carbamic Acid 1-{9-[(R)-2-Hydroxy-2-(8-hydroxy-2-oxo-1,2-dihydroquinolin-5-yl)ethylamino]nonyl}piperidin-4-yl Ester] | greater than 10 | greater than or equal to 5
O=C(Nc1c(F)cc(F)cc1-c1cccnc1)OC1CCN(CCCCCCCCCNC[C@H](O)c2ccc(O)c3[nH]c(=O)ccc23)CC1 [Example 3, (2,4-Difluoro-6-pyridin-3-ylphenyl)carbamic Acid 1-{9-[(R)-2-Hydroxy-2-(8-hydroxy-2-oxo-1,2-dihydroquinolin-5-yl)ethylamino]nonyl}piperidin-4-yl Ester] | greater than 10 | –
